Laboratory results from publication PMC4427335.
Results are given in words; binding and its absence hold for the method and conditions named. For some assays here: Binding can be weak; no strength is given. For some assays here: Binding seen in cells or lysates may run through a third protein.

Amino acid sequences for entries named in this document (tags omitted). A change or cut given only in a name is not applied to a line headed by its entry.
UniProt B2RWS6: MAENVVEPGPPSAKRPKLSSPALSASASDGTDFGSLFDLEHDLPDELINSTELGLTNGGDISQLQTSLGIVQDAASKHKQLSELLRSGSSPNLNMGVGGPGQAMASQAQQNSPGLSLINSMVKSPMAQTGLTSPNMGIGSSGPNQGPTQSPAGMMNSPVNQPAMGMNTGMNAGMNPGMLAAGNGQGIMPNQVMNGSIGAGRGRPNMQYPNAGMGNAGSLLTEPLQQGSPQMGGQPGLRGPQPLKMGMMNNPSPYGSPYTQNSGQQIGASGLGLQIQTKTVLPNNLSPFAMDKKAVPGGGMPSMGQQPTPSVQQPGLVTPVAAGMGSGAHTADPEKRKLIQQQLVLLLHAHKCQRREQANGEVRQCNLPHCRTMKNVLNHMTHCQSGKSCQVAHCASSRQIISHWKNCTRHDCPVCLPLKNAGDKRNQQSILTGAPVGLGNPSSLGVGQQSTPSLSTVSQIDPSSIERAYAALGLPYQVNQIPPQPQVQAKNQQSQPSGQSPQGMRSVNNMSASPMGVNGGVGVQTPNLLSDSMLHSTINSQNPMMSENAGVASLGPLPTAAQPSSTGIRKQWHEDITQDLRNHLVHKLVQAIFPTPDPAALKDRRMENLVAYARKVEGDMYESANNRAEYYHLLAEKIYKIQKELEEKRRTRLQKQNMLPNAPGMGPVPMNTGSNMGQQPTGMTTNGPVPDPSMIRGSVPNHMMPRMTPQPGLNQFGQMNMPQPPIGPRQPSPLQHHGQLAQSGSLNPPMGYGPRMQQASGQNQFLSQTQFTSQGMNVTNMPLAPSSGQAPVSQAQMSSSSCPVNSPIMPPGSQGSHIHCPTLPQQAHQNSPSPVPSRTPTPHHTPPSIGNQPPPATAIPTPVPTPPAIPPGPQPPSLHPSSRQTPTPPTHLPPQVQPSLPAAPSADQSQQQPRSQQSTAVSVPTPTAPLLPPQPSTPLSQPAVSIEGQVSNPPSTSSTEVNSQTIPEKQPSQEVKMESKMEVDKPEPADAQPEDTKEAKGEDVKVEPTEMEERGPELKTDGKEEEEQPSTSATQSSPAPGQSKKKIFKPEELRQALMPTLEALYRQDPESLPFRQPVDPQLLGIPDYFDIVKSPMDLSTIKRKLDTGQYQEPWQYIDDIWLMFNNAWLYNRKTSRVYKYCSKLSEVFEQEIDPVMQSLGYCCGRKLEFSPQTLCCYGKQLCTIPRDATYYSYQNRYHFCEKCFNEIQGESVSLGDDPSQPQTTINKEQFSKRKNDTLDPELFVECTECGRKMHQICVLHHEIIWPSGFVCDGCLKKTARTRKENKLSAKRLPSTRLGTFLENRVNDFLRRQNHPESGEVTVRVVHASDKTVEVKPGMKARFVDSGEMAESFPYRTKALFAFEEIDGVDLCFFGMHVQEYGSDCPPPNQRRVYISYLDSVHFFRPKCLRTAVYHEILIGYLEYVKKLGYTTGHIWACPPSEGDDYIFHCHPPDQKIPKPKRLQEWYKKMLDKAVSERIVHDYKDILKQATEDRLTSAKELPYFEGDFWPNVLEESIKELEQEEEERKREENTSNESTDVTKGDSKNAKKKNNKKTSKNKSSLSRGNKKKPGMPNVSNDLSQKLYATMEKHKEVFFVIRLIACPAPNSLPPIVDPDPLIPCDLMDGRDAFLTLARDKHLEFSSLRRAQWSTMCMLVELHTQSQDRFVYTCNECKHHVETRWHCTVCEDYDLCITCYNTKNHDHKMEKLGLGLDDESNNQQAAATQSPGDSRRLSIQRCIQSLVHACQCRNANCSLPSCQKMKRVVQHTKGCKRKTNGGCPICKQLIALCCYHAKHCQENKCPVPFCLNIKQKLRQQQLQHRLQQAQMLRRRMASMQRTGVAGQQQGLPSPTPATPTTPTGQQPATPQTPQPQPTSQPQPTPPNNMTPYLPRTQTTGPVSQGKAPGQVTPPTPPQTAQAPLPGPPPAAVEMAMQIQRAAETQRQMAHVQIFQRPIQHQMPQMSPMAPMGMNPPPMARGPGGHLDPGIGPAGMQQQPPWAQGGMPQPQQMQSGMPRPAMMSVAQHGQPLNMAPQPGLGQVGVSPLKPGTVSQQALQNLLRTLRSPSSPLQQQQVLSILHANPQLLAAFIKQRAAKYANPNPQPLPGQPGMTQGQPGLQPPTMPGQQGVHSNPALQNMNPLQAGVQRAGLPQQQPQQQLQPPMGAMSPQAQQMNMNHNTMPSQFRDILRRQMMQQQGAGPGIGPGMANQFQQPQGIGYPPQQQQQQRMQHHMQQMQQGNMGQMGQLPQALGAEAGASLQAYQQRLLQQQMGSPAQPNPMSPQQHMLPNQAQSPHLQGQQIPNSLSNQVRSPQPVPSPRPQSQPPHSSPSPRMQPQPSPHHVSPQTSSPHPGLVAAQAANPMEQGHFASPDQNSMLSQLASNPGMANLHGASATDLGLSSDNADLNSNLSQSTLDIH
UniProt P45481: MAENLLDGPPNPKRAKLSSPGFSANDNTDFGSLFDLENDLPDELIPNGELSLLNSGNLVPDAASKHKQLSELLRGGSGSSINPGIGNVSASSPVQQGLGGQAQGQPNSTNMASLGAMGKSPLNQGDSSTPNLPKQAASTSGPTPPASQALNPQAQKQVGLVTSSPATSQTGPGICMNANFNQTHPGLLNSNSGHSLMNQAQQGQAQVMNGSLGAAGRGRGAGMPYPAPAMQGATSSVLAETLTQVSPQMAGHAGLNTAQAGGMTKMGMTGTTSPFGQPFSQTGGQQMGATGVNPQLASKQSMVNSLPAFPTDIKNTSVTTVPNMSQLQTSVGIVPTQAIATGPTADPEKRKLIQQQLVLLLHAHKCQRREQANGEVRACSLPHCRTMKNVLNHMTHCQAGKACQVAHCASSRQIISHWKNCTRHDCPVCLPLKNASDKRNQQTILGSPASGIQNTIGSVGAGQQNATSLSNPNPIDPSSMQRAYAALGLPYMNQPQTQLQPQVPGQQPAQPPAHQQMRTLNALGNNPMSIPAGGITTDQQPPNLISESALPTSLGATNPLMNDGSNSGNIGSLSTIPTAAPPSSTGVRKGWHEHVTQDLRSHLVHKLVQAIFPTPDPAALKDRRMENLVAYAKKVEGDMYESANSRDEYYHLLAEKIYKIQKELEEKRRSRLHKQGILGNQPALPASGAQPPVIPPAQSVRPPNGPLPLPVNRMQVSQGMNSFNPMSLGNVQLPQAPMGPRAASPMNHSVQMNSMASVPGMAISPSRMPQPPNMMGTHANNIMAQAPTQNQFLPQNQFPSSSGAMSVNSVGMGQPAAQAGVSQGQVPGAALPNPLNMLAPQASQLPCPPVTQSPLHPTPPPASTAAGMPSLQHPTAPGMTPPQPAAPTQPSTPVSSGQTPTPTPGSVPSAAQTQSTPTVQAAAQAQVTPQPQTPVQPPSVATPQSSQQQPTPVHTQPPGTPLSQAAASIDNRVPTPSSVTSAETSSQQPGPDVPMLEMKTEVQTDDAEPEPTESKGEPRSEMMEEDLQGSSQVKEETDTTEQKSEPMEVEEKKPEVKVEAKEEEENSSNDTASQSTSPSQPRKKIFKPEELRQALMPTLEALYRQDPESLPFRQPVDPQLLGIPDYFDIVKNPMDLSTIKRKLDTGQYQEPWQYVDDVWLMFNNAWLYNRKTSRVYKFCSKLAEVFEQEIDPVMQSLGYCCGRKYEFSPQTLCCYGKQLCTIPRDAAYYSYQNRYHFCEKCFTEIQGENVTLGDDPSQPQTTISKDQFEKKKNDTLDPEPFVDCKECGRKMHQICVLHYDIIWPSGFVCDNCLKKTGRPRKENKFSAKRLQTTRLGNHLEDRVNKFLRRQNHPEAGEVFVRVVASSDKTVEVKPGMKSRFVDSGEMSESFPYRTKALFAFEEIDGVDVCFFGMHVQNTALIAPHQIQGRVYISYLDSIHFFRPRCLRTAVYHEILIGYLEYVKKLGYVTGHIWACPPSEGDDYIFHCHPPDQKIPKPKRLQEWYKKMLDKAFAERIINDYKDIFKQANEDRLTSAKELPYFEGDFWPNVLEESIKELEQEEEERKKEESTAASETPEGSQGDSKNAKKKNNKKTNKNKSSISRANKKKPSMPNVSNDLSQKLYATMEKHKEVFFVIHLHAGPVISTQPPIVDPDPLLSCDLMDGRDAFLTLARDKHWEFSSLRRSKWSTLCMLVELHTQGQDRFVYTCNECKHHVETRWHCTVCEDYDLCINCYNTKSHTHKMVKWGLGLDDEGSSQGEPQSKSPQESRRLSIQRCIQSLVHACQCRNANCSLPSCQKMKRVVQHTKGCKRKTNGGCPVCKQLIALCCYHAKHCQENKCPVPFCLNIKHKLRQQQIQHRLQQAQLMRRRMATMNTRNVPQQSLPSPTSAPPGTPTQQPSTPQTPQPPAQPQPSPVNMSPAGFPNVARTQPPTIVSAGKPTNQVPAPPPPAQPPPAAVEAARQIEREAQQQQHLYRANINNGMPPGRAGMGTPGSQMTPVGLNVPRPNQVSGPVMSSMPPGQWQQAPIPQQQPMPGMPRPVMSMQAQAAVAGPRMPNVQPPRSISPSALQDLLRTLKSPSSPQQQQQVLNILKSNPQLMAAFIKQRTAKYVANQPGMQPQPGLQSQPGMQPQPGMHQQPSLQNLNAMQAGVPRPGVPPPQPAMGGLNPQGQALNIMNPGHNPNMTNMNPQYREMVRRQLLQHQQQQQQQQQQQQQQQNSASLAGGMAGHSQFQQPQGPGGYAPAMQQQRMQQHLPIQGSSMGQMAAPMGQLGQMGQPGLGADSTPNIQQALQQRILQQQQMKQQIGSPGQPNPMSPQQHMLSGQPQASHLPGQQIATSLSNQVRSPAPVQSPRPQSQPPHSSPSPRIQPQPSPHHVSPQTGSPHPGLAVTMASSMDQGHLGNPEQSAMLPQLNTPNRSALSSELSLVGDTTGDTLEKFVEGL
UniProt P62196: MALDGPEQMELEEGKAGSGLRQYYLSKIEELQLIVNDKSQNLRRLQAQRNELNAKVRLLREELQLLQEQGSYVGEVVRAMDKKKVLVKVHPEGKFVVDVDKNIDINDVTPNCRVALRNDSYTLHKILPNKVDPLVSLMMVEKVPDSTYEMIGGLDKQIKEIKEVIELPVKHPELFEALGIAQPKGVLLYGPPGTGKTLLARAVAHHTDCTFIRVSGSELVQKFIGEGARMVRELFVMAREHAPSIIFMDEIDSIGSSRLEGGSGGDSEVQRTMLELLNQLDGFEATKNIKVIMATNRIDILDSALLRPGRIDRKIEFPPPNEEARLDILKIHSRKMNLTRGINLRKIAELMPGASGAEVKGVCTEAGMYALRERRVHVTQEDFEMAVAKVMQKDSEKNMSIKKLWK

What was measured:
[1] = target: T1, Δ2ΔFosB (UniProt P13346); assay: two-hybrid; MaV203 yeast; bait Δ2ΔFosB in pDBLeu, prey mouse brain library in pPC86; SC-medium lacking leucine, tryptophan and histidine with 10 mM 3-aminotriazole; reporters His3, Ura3, LacZ; positive clones retested by retransformation
T1 sequence: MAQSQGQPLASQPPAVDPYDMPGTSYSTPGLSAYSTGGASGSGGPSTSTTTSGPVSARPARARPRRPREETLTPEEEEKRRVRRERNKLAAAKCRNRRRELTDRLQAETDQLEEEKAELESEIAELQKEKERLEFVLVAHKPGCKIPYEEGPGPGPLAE

[2] = target: p300, in Neuro2A cells (mouse (endogenous in Neuro2A)) (UniProt B2RWS6); assay: co-IP; Neuro2A cells transfected with MYC-tagged ΔFosB forms or FLAG-tagged PSMC5 forms; cell extracts immunoprecipitated with anti-CBP or anti-p300 antibody (endogenous CBP, p300); Western blot with anti-MYC or anti-FLAG
[3] = target: CBP (CREB binding protein), in Neuro2A cells (mouse (endogenous in Neuro2A)) (UniProt P45481); assay: as above
[4] = target: FLAG-tagged PSMC5 (UniProt P62196); assay: co-IP; Neuro 2A cells co-transfected with ΔFosB or ΔFosB-LZM and FLAG-tagged PSMC5 or its mutants; lysed in RIPA buffer two days later; immunoprecipitation with anti-FLAG (nonimmune IgG as control), Protein G beads, 3 hr at 4°C; Western blot with anti-FosB/ΔFosB
[5] = target: PSMC5-Δcoiled-coil domain (UniProt P62196); assay: as above

Molecule: Ankyrin repeat domain 35 (mouse)
- binding [1]: binds

Molecule: MYC-tagged ΔFosB-LZM (from UniProt P13346-2)
- binding [2]: no binding
- binding [3]: no binding

Molecule: ΔFosB-LZM (from UniProt P13346-2)
- binding [4]: no binding

B1: ΔFosB (pcDNA3.1-ΔFosB) (protein, UniProt P13346-2 1-237)
chain: MFQAFPGDYDSGSRCSSSPSAESQYLSSVDSFGSPPTAAASQECAGLGEMPGSFVPTVTAITTSQDLQWLVQPTLISSMAQSQGQPLASQPPAVDPYDMPGTSYSTPGLSAYSTGGASGSGGPSTSTTTSGPVSARPARARPRRPREETLTPEEEEKRRVRRERNKLAAAKCRNRRRELTDRLQAETDQLEEEKAELESEIAELQKEKERLEFVLVAHKPGCKIPYEEGPGPGPLAE
- binding [5]: no binding
